PubChem BioAssay AID1259405, NCATS | 2018

- Screen: 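Silenced genes that increase secreted GFP made by CHO cells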 (primary screen)
- System: Chinese hamster CHO-K1 ovary cells with stable secreted eGFP expression
- Reagents: single siRNA against mouse genes, 0.8 pmol siRNA per well (2 µl of 400 nM stock)
- Timing: 3 days
- Detection: 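Per-well intracellular GFP measured by laser scanning cytometry, plus viability from ATP luminescence, each relative to plate median of non-targeting control wells, in %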
- Scale: GFP, % of control: higher = more GFP per well, higher productivity; viability (ATP), % of control: higher = more viable cells (more ATP)
- Call rule: 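a knock-down is called active if GFP reaches 120% or more of non-targeting control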
In all, the deposit lists about 50,000 reagents; this is a random part of them. Of all reagents, about 4,000 (8%) are marked active. 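Mouse siRNA library applied to hamster cells; one well for each siRNA.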 Reagents against one gene are numbered here.

target | reagent | GFP, % of control | viability (ATP), % of control | call
Fcmr (Fc fragment of IgM receptor) | 1 | 120 | 81.8 | active
Fcmr (Fc fragment of IgM receptor) | 2 | 108 | 111 | inactive
Fcmr (Fc fragment of IgM receptor) | 3 | 41 | 30.3 | inactive
Dhx32 (DEAH-box helicase 32 (putative)) | 1 | 125 | 95.3 | active
Dhx32 (DEAH-box helicase 32 (putative)) | 2 | 131 | 136 | active
Dhx32 (DEAH-box helicase 32 (putative)) | 3 | 121 | 93 | active
4931440P22Rik (RIKEN cDNA 4931440P22 gene) | 1 | 76.6 | 80 | inactive
4931440P22Rik (RIKEN cDNA 4931440P22 gene) | 2 | 90.5 | 85.1 | inactive
4931440P22Rik (RIKEN cDNA 4931440P22 gene) | 3 | 111 | 89.6 | inactive
Stx1a (syntaxin 1A (brain)) | 1 | 84.3 | 96.2 | inactive
Stx1a (syntaxin 1A (brain)) | 2 | 73.8 | 69.9 | inactive
Sez6 (seizure related gene 6) | 1 | 45.9 | 47.1 | inactive
Sez6 (seizure related gene 6) | 2 | 40.6 | 77.4 | inactive
Sez6 (seizure related gene 6) | 3 | 100 | 90.1 | inactive
Tsr1 (TSR1 20S rRNA accumulation) | 1 | 89.2 | 86.8 | inactive
Tsr1 (TSR1 20S rRNA accumulation) | 2 | 73.5 | 77.7 | inactive
Tsr1 (TSR1 20S rRNA accumulation) | 3 | 26.5 | 21.7 | inactive
Pten (phosphatase and tensin homolog) | 1 | 28.1 | 26.1 | inactive
Pten (phosphatase and tensin homolog) | 2 | 58.5 | 69.4 | inactive
Pten (phosphatase and tensin homolog) | 3 | 105 | 78 | inactive
Pten (phosphatase and tensin homolog) | 4 | 115 | 75.7 | inactive
Pten (phosphatase and tensin homolog) | 5 | 68.1 | 55.6 | inactive
Pten (phosphatase and tensin homolog) | 6 | 82.2 | 57.8 | inactive
Mrpl49 (mitochondrial ribosomal protein L49) | 1 | 86.4 | 72.6 | inactive
Mrpl49 (mitochondrial ribosomal protein L49) | 2 | 94.3 | 88.1 | inactive
Mrpl49 (mitochondrial ribosomal protein L49) | 3 | 84.4 | 62.5 | inactive
Polg2 (polymerase (DNA directed), gamma 2, accessory subunit) | 1 | 67.4 | 56.7 | inactive
Polg2 (polymerase (DNA directed), gamma 2, accessory subunit) | 2 | 86 | 103 | inactive
Or52n4 (olfactory receptor family 52 subfamily N member 4) | 1 | 47.5 | 58.2 | inactive
Or52n4 (olfactory receptor family 52 subfamily N member 4) | 2 | 114 | 38.5 | inactive
Or52n4 (olfactory receptor family 52 subfamily N member 4) | 3 | 73.4 | 60.7 | inactive
Tubb5 (tubulin, beta 5 class I) | 1 | 72.7 | 73.1 | inactive
Tubb5 (tubulin, beta 5 class I) | 2 | 60.4 | 49.9 | inactive
Adcy9 (adenylate cyclase 9) | 1 | 105 | 105 | inactive
Adcy9 (adenylate cyclase 9) | 2 | 176 | 99.6 | active
Adcy9 (adenylate cyclase 9) | 3 | 78.3 | 83.8 | inactive

In a second layout: 4 of the entries above.
Stx1a (syntaxin 1A (brain)) #1
- GFP, % of control: 84.3
- viability (ATP), % of control: 96.2
- call: inactive

Stx1a (syntaxin 1A (brain)) #2
- GFP, % of control: 73.8
- viability (ATP), % of control: 69.9
- call: inactive

Sez6 (seizure related gene 6) #1
- GFP, % of control: 45.9
- viability (ATP), % of control: 47.1
- call: inactive

Sez6 (seizure related gene 6) #2
- GFP, % of control: 40.6
- viability (ATP), % of control: 77.4
- call: inactive
